Taken from: PubChem BioAssay AID1259405 (NCATS, 2018)
The whole screen tested about 50,000 reagents; below is an unselected part. About 4,000 of them (8%) were called active. 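Mouse siRNA library applied to hamster cells; one well for each siRNA.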 A number with no mark means an inactive call. Reagents against one gene are numbered here.

Test: 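Mouse-designed siRNAs used to find CHO productivity engineering targets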 (primary screen)
Cells: Chinese hamster CHO-K1 ovary cells with stable secreted eGFP expression
Knock-down reagent: single siRNA against mouse genes, 0.8 pmol siRNA per well (2 µl of 400 nM stock)
Timing: 3 days
Measured: 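Per-well intracellular GFP measured by laser scanning cytometry, plus viability from ATP luminescence, each relative to plate median of non-targeting control wells, in %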
Scale: GFP, % of control: higher = more GFP per well, higher productivity; viability (ATP), % of control: higher = more viable cells (more ATP)
Active means: 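a knock-down is called active if GFP reaches 120% or more of non-targeting control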

Snapin (SNAP-associated protein) #1 | GFP, % of control = 50.3; viability (ATP), % of control = 117
Snapin (SNAP-associated protein) #2 | GFP, % of control = 58.7; viability (ATP), % of control = 46.3
Kank4 (KN motif and ankyrin repeat domains 4) #1 | GFP, % of control = 21.4; viability (ATP), % of control = 46.2
Kank4 (KN motif and ankyrin repeat domains 4) #2 | GFP, % of control = 68; viability (ATP), % of control = 91.2
Kank4 (KN motif and ankyrin repeat domains 4) #3 | GFP, % of control = 73.7; viability (ATP), % of control = 101
Zfp455 (zinc finger protein 455) #1 | GFP, % of control = 45.8; viability (ATP), % of control = 49.9
Zfp455 (zinc finger protein 455) #2 | GFP, % of control = 80; viability (ATP), % of control = 76.8
Zfp455 (zinc finger protein 455) #3 | GFP, % of control = 61.6; viability (ATP), % of control = 64.3
4933402J07Rik (RIKEN cDNA 4933402J07 gene) #1 | GFP, % of control = 152 (active); viability (ATP), % of control = 71.2
4933402J07Rik (RIKEN cDNA 4933402J07 gene) #2 | GFP, % of control = 95.2; viability (ATP), % of control = 111
4933402J07Rik (RIKEN cDNA 4933402J07 gene) #3 | GFP, % of control = 169 (active); viability (ATP), % of control = 128
Pacsin3 (protein kinase C and casein kinase substrate in neurons 3) #1 | GFP, % of control = 75; viability (ATP), % of control = 93.5
Pacsin3 (protein kinase C and casein kinase substrate in neurons 3) #2 | GFP, % of control = 70.8; viability (ATP), % of control = 64.1
Chpf (chondroitin polymerizing factor) #1 | GFP, % of control = 123 (active); viability (ATP), % of control = 96.5
Chpf (chondroitin polymerizing factor) #2 | GFP, % of control = 90.4; viability (ATP), % of control = 116
Chpf (chondroitin polymerizing factor) #3 | GFP, % of control = 125 (active); viability (ATP), % of control = 113
Rgs7bp (regulator of G-protein signalling 7 binding protein) #1 | GFP, % of control = 86.3; viability (ATP), % of control = 113
Rgs7bp (regulator of G-protein signalling 7 binding protein) #2 | GFP, % of control = 93.6; viability (ATP), % of control = 87.2
Rgs7bp (regulator of G-protein signalling 7 binding protein) #3 | GFP, % of control = 143 (active); viability (ATP), % of control = 121
Trip12 (thyroid hormone receptor interactor 12) #1 | GFP, % of control = 49.3; viability (ATP), % of control = 50
Trip12 (thyroid hormone receptor interactor 12) #2 | GFP, % of control = 72.6; viability (ATP), % of control = 70.1
Trip12 (thyroid hormone receptor interactor 12) #3 | GFP, % of control = 67.8; viability (ATP), % of control = 52
Pus7l (pseudouridylate synthase 7-like) #1 | GFP, % of control = 57.7; viability (ATP), % of control = 49.9
Pus7l (pseudouridylate synthase 7-like) #2 | GFP, % of control = 73.3; viability (ATP), % of control = 82.3
Pus7l (pseudouridylate synthase 7-like) #3 | GFP, % of control = 66.7; viability (ATP), % of control = 71.1
Exo1 (exonuclease 1) #1 | GFP, % of control = 60.1; viability (ATP), % of control = 72.1
Exo1 (exonuclease 1) #2 | GFP, % of control = 83.1; viability (ATP), % of control = 97.6
Exo1 (exonuclease 1) #3 | GFP, % of control = 53.7; viability (ATP), % of control = 54
Tspan18 (tetraspanin 18) #1 | GFP, % of control = 46.8; viability (ATP), % of control = 28.6
Tspan18 (tetraspanin 18) #2 | GFP, % of control = 64.4; viability (ATP), % of control = 91
Tspan18 (tetraspanin 18) #3 | GFP, % of control = 143 (active); viability (ATP), % of control = 146
Ldha (lactate dehydrogenase A) #1 | GFP, % of control = 69.6; viability (ATP), % of control = 101
Ldha (lactate dehydrogenase A) #2 | GFP, % of control = 80.7; viability (ATP), % of control = 71.6
Ldha (lactate dehydrogenase A) #3 | GFP, % of control = 73.5; viability (ATP), % of control = 86
Vmn1r23 (vomeronasal 1 receptor 23) #1 | GFP, % of control = 72.3; viability (ATP), % of control = 55.6
Vmn1r23 (vomeronasal 1 receptor 23) #2 | GFP, % of control = 81.8; viability (ATP), % of control = 80.6
Vmn1r23 (vomeronasal 1 receptor 23) #3 | GFP, % of control = 110; viability (ATP), % of control = 113
Ccn2 (cellular communication network factor 2) #1 | GFP, % of control = 73.5; viability (ATP), % of control = 83.4
Ccn2 (cellular communication network factor 2) #2 | GFP, % of control = 66.7; viability (ATP), % of control = 73.7
Fmo1 (flavin containing monooxygenase 1) #1 | GFP, % of control = 105; viability (ATP), % of control = 81.3
Fmo1 (flavin containing monooxygenase 1) #2 | GFP, % of control = 76; viability (ATP), % of control = 76.7
Fmo1 (flavin containing monooxygenase 1) #3 | GFP, % of control = 87.4; viability (ATP), % of control = 93.1
